{"source": "the supplement of paper PMC9015667", "note": "Structures can show the parent of a compound that is named as a salt. The list shows a part of the results. Most values come without repeats; read them as rough.", "data": [{"test_system": "M238R (matched melanoma line resistant to BRAF inhibitors)", "experiment": "reduction in cell viability relative to untreated/vehicle; higher = more growth inhibition", "conditions": "200 nM; 72 h", "units": {"reduction in cell viability": "%"}, "values": [{"smiles": "CC[C@H](c1ccc(O)cc1)[C@@H](CC)c1ccc(O)cc1", "note": "[Hexestrol]", "reduction in cell viability": "< 0"}, {"smiles": "CN(c1nccc(=O)[nH]1)C1CCN(c2nc3ccccc3n2Cc2ccc(F)cc2)CC1", "note": "[Mizolastine]", "reduction in cell viability": "< 0"}, {"smiles": "COc1cc2nccc(Oc3ccc(NC(=O)Nc4cc(C)on4)c(Cl)c3)c2cc1OC", "note": "[Tivozanib]", "reduction in cell viability": "< 0"}, {"smiles": "COc1cc2nc(N3CCN(C(=O)c4ccco4)CC3)nc(N)c2cc1OC", "note": "[Prazosin hydrochloride]", "reduction in cell viability": "< 0"}, {"smiles": "CC(C)c1ccc(Cn2ccc3c4c(N)nc(NC5CC5)nc4ccc32)cc1", "reduction in cell viability": 51.4}, {"smiles": "COc1nccc(-c2c(-c3ccc(F)cc3)ncn2C2CCNCC2)n1", "reduction in cell viability": "< 0"}, {"smiles": "COc1nc(C)cnc1NS(=O)(=O)c1cccnc1-c1ccc(-c2nnco2)cc1", "note": "[Zibotentan]", "reduction in cell viability": "< 0"}, {"smiles": "CCOC(=O)Nc1ccc(NCc2ccc(F)cc2)nc1N", "note": "[Flupirtine maleate]", "reduction in cell viability": "< 0"}, {"smiles": "O=C(NCC1CCCCN1)c1cc(OCC(F)(F)F)ccc1OCC(F)(F)F", "note": "(stereo not given) [Flecainide]", "reduction in cell viability": "< 0"}, {"smiles": "CC(C(=O)O)c1cccc(C(=O)c2ccccc2)c1", "note": "(stereo not given) [Ketoprofen]", "reduction in cell viability": "< 0"}, {"smiles": "CCc1cnn2c(NCc3ccc[n+]([O-])c3)cc(N3CCCC[C@H]3CCO)nc12", "reduction in cell viability": 51.1}, {"smiles": "O=C(/C=C/c1cccnc1)NCCCCC1CCN(C(=O)c2ccccc2)CC1", "note": "[FK866 (APO866, Daporinad)]", "reduction in cell viability": 58.8}, {"smiles": "CC(C)NCC(O)COc1ccc(CCOCC2CC2)cc1", "note": "(stereo not given) [Betaxolol]", "reduction in cell viability": "< 0"}, {"smiles": "Cc1cc(C(C)Nc2ccccc2)c2nc(N3CCOCC3)cc(=O)n2c1", "note": "(stereo not given)", "reduction in cell viability": 13.6}, {"smiles": "COc1cc([C@@H]2c3cc4c(cc3[C@@H](O[C@@H]3O[C@@H]5CO[C@@H](C)O[C@H]5[C@H](O)[C@H]3O)[C@H]3COC(=O)[C@H]23)OCO4)cc(OC)c1O", "note": "[Etoposide]", "reduction in cell viability": 0.54}]}]}
